Among the data in EP3479863B1, “COMPOSITIONS, METHODS AND ARTICLES CONCERNING PHARMACEUTICAL NITRIC OXIDE AND CONTROLLED PATIENT DELIVERY SYSTEMS THEREOF” (Mallinckrodt Pharmaceuticals Ireland Limited, priority 2010, dated 2012) are Maximum peak concentration and AUC values, retold here.

This data set is described as follows: NO release from powdered acids hit by single 50 nL sodium nitrite droplets, measured with NO analyzer. The note with it: 50 nL droplet of 6M NaNO2; for Maximum peak concentration: Example 2, 7 mg finely ground powder per well; for AUC: Example 2, NO peak, 7 mg finely ground powder per well. As for the experimental part:
Powdered acids of different acidity (TABLE 1) and reducing capacity, or mixtures at equal weight ratios thereof, were tested for their ability to promote NO release from concentrated aqueous solutions of sodium nitrite. Acids were finely ground and about 5-7 mg placed into wells of a reaction plate contained within a reaction chamber equipped with a microvalve capable of dispensing single 50 nL liquid droplets of sodium nitrite into each well. The reaction chamber was continuously flushed with air at defined flow rates and the NO concentration in the air measured with a […]® NO Analyzer 280i. When NO concentrations exceeded the measurement range of the NO analyzer, the air stream was diluted with a nitrogen stream of defined flow rate prior to measurement and the measured NO concentration corrected for the dilution factor. 50 ml of 6M NaNO2 stock solution was prepared and degassed for 15 minutes. 10 mL of the stock solution was filled into a liquid reservoir feeding a microvalve capable of dispensing single 50 nL liquid droplets sequentially into each of six wells of a reaction plate contained within a reaction chamber. The air flow rate through the reaction chamber was set to 500 mL/minute. The air flow was diluted with nitrogen gas to a flow rate of 1586 mL/minute to allow measurement of the entire NO peak with a […]® NO Analyzer 280i. The NO analyzer was calibrated using a 45 ppm NO calibration gas prior to the experiment. […] The microvalve fired a 50 nL droplet into each well. The timecourse of NO production was measured with the NO Analyzer. The following time parameters were analyzed for each NO peak: AUC, time to reaching 90% of the AUC, and maximum peak NO concentration.

`O=C1O[C@H]([C@@H](O)CO)C(O)=C1O` [Ascorbic Acid, reference compound] gave a Maximum peak concentration of 156.4 ppm and an AUC of 304.16 ppm·sec.

Croconic Acid: the Maximum peak concentration turned out to be 711.5 ppm and the AUC turned out to be 313.2 ppm·sec.
